From PubChem BioAssay AID504467 (National Center for Advancing Translational Sciences (NCATS), 2011)
Among all 330,000 compounds or so, about 7,700 (2.3%) were called active. Inconclusive means that the source gave no clear call. Such entries were picked first, then a sample of the others. Calls follow the shape of the dose curve; as a rule, active = well fitted inhibition curve with a large enough effect; inconclusive = small, poorly fitted or top-dose-only effect, or effect the other way; inactive = flat fitted curve, though single readings scatter. Potencies of inconclusive entries are doubtful fits and often do not repeat.

Test: qHTS screen for small molecules that inhibit ELG1-dependent DNA repair in human embryonic kidney (HEK293T) cells expressing luciferase-tagged ELG1; also: nearly all actives have a fitted effect of over 55% in size
Settings: HEK293T ELG1-luciferase reporter, luminescence, 16 h, DNA damage induced by 5-fluorouridine; series mostly up to 46.1 µM
Summary of the method: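 HEK293T cells expressing luciferase-tagged ELG1 (2,000/well) received 5-Fluorouridine plus compound or DMSO for 16 hr at 37 °C. Luciferase was read by ONE-Glo luminescence after 30 min at room temperature.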
Potency is read from the fitted curve at half-maximal effect.

For CN(C)S(=O)(=O)c1cc(NC(=O)CN2CCN(c3ccccc3O)CC2)ccc1Cl, which Potency is on record?
Its Potency is inconclusive: 23.1 µM [inhibitor, single point].

Which Potency does the source give for CSCc1ccc(C(=O)NCc2ccccc2)cc1 here?
The Potency was inconclusive: 20.6 µM [activator, partial curve].

With COc1cc(NC(=O)COC(=O)CC2CC3CCC2C3)cc(OC)c1 (configuration not stated) as the compound, how does the Potency read?
The Potency was inconclusive: 23.1 µM [activator, partial curve, poor fit].

With Cc1ccc(N2CC(C(=O)NCCS(=O)(=O)N3CCN(c4ccc(F)cc4)CC3)CC2=O)cc1 (configuration not stated) as the compound, how does the Potency read?
Its Potency is “inactive”.

Which Potency does the source give for CCC(=O)c1cn(CC(=O)Nc2ccc(C)cc2C)c2ccccc12 here?
Its Potency is “inactive”.

For Cc1ccc(NC(=O)c2ccc(OC(=S)N3CCOCC3)cc2)cc1, which Potency is on record?
Its Potency is inconclusive: 16.4 µM [activator, single point].

With O=S(=O)(NC1CCCC1)c1cccc(S(=O)(=O)N2CCC(n3nnc4ccccc43)CC2)c1 as the compound, how does the Potency read?
Its Potency is inconclusive: 20.6 µM [inhibitor, single point].

For CN(Cc1ccccc1)S(=O)(=O)c1ccc2[nH]cc(C(=O)NCC3CCCO3)c(=O)c2c1 (configuration not stated), which Potency is on record?
The Potency was inconclusive: 16.4 µM [activator, partial curve].

With CC(Oc1ccc(C(=O)c2ccccc2)cc1)C(=O)N1CCOCC1 (configuration not stated) as the compound, how does the Potency read?
Its Potency is “inactive”.

With Cc1ccc2nsnc2c1S(=O)(=O)N(Cc1cc2cccc(C)c2[nH]c1=O)CC1CCCO1 (configuration not stated) as the compound, how does the Potency read?
The Potency was active: 2.31 µM.

With COc1cc(NC(=O)c2cc(-c3ccccc3Cl)on2)cc(OC)c1OC as the compound, how does the Potency read?
The Potency was active: 9.2 µM.

With COc1ccc(C)c2sc(N(CCCN(C)C)C(=O)CS(=O)(=O)c3ccc(F)cc3)nc12 as the compound, how does the Potency read?
Its Potency is “inactive”.

Which Potency does the source give for CCCN1C(=O)c2cc(C(=O)Nc3ccc(OC)c(OC)c3)ccc2C1Nc1ccc(OC)c(OC)c1 (configuration not stated) here?
The Potency was inconclusive: 29.1 µM [inhibitor, single point].

With O=C(CSc1nnc(CNC(=O)c2cccc(C(F)(F)F)c2)o1)NC1CCCCC1 as the compound, how does the Potency read?
Its Potency is “inactive”.

Which Potency does the source give for Cc1ccc(C)c(OCCCC(=O)N2CCOCC2)c1 here?
The Potency was inconclusive: 20.6 µM [activator, single point].

Which Potency does the source give for CCOc1ccc(-c2cc(C(=O)NCCCn3ccnc3)c3ccccc3n2)cc1 here?
The Potency was “inactive”.

With CCCCc1cc(=O)oc2cc(O)cc(O)c12 as the compound, how does the Potency read?
Its Potency is “inactive”.

For Cc1ccc(-c2noc(CCC(=O)NC3CCN(Cc4ccccc4)CC3)n2)cc1, which Potency is on record?
Its Potency is inconclusive: 17.8 µM [inhibitor, partial curve, poor fit].

With CC(=O)c1ccc(S(=O)(=O)N2CCN(C(=O)CCC3CCCC3)CC2)cc1 as the compound, how does the Potency read?
Its Potency is “inactive”.

Which Potency does the source give for Cc1ccc2nc(N3C(=O)C(O)=C(C(=O)c4ccco4)C3c3ccc(O)cc3)sc2c1 (configuration not stated) here?
Its Potency is inconclusive: 29.1 µM [activator, single point].

For COc1ccc(OC)c(NC(=O)c2cc3n(n2)C(C(F)(F)F)CC(c2ccc4c(c2)OCO4)N3)c1 (configuration not stated), which Potency is on record?
Its Potency is “inactive”.

With Cc1ccccc1-c1nc(CS(=O)(=O)CC(=O)NCc2ccco2)c(C)o1 as the compound, how does the Potency read?
The Potency was “inactive”.

With COc1ccc(CNC(=O)Cn2cnc3c(SC)nc(N)nc32)cc1 as the compound, how does the Potency read?
The Potency was inconclusive: 8.2 µM [inhibitor, partial curve].

With S=c1[nH]nc(COc2ccc(Cl)cc2)n1Cc1ccco1 as the compound, how does the Potency read?
Its Potency is “inactive”.

For Cc1ccc(Oc2ccc(S(=O)(=O)N3CCOCC3)cc2C(N)=O)c(-n2nc3ccccc3n2)c1, which Potency is on record?
The Potency was inconclusive: 6.51 µM [inhibitor, partial curve, poor fit].

Which Potency does the source give for CCC(C)c1ccc(NC(=O)Nc2cnccn2)cc1 (configuration not stated) here?
Its Potency is inconclusive: 20.6 µM [activator, partial curve].

With Oc1c(CN2CCOCC2)cc(-c2ccccc2)cc1CN1CCOCC1 as the compound, how does the Potency read?
Its Potency is inconclusive: 16.4 µM [inhibitor, single point].

For COc1ccc(CCNc2nc3ccccc3n3cnnc23)cc1OC, which Potency is on record?
Its Potency is inconclusive: 5.8 µM [inhibitor, partial curve, poor fit].

Which Potency does the source give for C[C@H](NC(=O)c1ccc2ccccc2c1)C(=O)N1CCC2(CC1)NCCc1[nH]cnc12 here?
The Potency was “inactive”.

Which Potency does the source give for CC12CCC(C(=O)Nc3ccccc3Cl)(C(Br)C1=O)C2(C)C (configuration not stated) here?
The Potency was “inactive”.

With O=C(Nc1ccccc1)ON=C1CCCC1 as the compound, how does the Potency read?
Its Potency is inconclusive: 18.4 µM [activator, partial curve].

For CC(=O)Nc1ccc(NS(=O)(=O)c2ccc(C)cc2)c([N+](=O)[O-])c1, which Potency is on record?
The Potency was “inactive”.

With N#Cc1nc(-c2cccs2)oc1N1CCN(Cc2ccccc2)CC1 as the compound, how does the Potency read?
Its Potency is inconclusive: 20.6 µM [inhibitor, single point].

For CCCCCOC(=O)C1=C(C)N(C)C(=O)NC1c1cc(Br)c(O)c(OC)c1 (configuration not stated), which Potency is on record?
The Potency was inconclusive: 16.4 µM [inhibitor, single point].

Which Potency does the source give for N#CCCN1CCN(C(=S)c2ccc(-c3ccc(Cl)c(Cl)c3)o2)CC1 here?
The Potency was inconclusive: 4.11 µM [activator, partial curve, poor fit].

With O=C(NN1CCOCC1)c1ccc(Cl)c([N+](=O)[O-])c1 as the compound, how does the Potency read?
Its Potency is “inactive”.

Which Potency does the source give for COc1ccc(-c2nc(-c3ccccc3)c(-c3cccs3)[nH]2)cc1OC here?
Its Potency is active: 14.6 µM.

Which Potency does the source give for CCOC(=O)c1ccc(NC(=O)CSc2nnc(CNC(=O)c3ccco3)o2)cc1 here?
The Potency was “inactive”.

For COc1cccc(NC(=O)C2CCN(Cc3cnn(-c4ccccc4)c3-n3cccc3)CC2)c1, which Potency is on record?
The Potency was active: 18.4 µM.

For Cc1nc(-c2ccncc2)nc(NCCNc2ccc(C(F)(F)F)cn2)c1Cl, which Potency is on record?
The Potency was inconclusive: 20.6 µM [inhibitor, single point].

Which Potency does the source give for Cc1cc(=O)[nH]c(N/N=C/c2ccc(Br)s2)n1 here?
Its Potency is inconclusive: 23.1 µM [activator, partial curve].

For CCN(CC)c1ccc(NC(=O)c2cccc(F)c2)c(C)c1, which Potency is on record?
The Potency was “inactive”.

Which Potency does the source give for O=C(NCCCN1CCOCC1)c1cnccn1 here?
The Potency was “inactive”.

With Cn1cc(C(=O)N/N=C/C=C/c2ccccc2)ccc1=O as the compound, how does the Potency read?
Its Potency is inconclusive: 23.1 µM [activator, single point].

With O=C(Nc1cccc(Cl)c1)c1cc(-c2ccco2)on1 as the compound, how does the Potency read?
The Potency was inconclusive: 23.1 µM [activator, partial curve, poor fit].

For COc1ccc(/C=C2\SC(=O)N(CCCC(=O)Nc3cc(Cl)ccc3C(=O)O)C2=O)cc1, which Potency is on record?
The Potency was active: 2.06 µM.

Which Potency does the source give for Cc1ccccc1Nc1nnc(SCC(=O)Nc2ccccc2[N+](=O)[O-])s1 here?
The Potency was inconclusive: 7.31 µM [activator, partial curve].

For CC1=NN(C(N)=S)C(=O)C1N=Nc1ccc(C)cc1C (configuration not stated), which Potency is on record?
The Potency was inconclusive: 16.4 µM [activator, partial curve].

For O=C(CC1CC2CCC1C2)N1CCN(S(=O)(=O)c2ccccc2[N+](=O)[O-])CC1 (configuration not stated), which Potency is on record?
Its Potency is “inactive”.

Which Potency does the source give for O=C(NC(=S)Nc1ccccc1N1CCOCC1)c1ccc(-c2cccc(Cl)c2)o1 here?
Its Potency is inconclusive: 25.9 µM [inhibitor, partial curve, poor fit].

With COc1ccc([C@@]2(O)c3c(ccc(CC=C(C)C)c3O)NC(=O)[C@@H]2OC)cc1 as the compound, how does the Potency read?
Its Potency is “inactive”.

Which Potency does the source give for COc1cc(/C=C/C(=O)NC(C)(C)C)ccc1OCc1ccccc1 here?
Its Potency is “inactive”.

With Cc1ccc(-c2cc(C(=O)Nc3cc(C)ccc3C)[nH]n2)c(O)c1 as the compound, how does the Potency read?
The Potency was inconclusive: 18.4 µM [activator, single point].

Which Potency does the source give for Oc1ccccc1-c1nc(NCc2ccco2)c2ccccc2n1 here?
The Potency was “inactive”.

Which Potency does the source give for O=C(O)c1ccc(N=Nc2c(O)[nH]c3ccc(Br)cc23)cc1 here?
Its Potency is inconclusive: 13 µM [activator, partial curve].

For Cc1ccc(-c2cn3cccnc3n2)cc1NC(=O)c1c(-c2ccccc2Cl)noc1C, which Potency is on record?
Its Potency is inconclusive: 20.6 µM [inhibitor, partial curve, poor fit].

For N#Cc1nc(COc2ccc(F)cc2)oc1N1CCCC1, which Potency is on record?
Its Potency is “inactive”.

Which Potency does the source give for CC1(C)CC(=O)c2sc(NS(=O)(=O)Cc3ccccc3)nc2C1 here?
Its Potency is inconclusive: 29.1 µM [activator, single point].

For O=C(CCCSc1nc2ccccc2[nH]1)NC1CCCCC1, which Potency is on record?
Its Potency is “inactive”.

For Nc1c(C(=O)N2CCOCC2)sc2nc3c(cc12)CCCC3, which Potency is on record?
The Potency was inconclusive: 0.366 µM [activator, full curve].

Which Potency does the source give for CCOc1ccccc1Nc1nc(-c2sc(NC(=O)c3ccccc3)nc2C)cs1 here?
Its Potency is “inactive”.

For O=C(Cc1cccs1)NCc1cccc(Cl)c1, which Potency is on record?
The Potency was inconclusive: 18.3 µM [activator, partial curve].

For CC(C)c1ccc(NC2CCCN(C(=O)c3n[nH]c4c3CCC4)C2)cc1 (configuration not stated), which Potency is on record?
The Potency was inconclusive: 6.51 µM [inhibitor, single point].

Which Potency does the source give for COc1ccccc1Cn1nnc2c(=O)[nH]c(C3CCN(C(=O)c4ccc(C)cc4)CC3)nc21 here?
The Potency was active: 23.1 µM.

Which Potency does the source give for CCCN1CCN(CCCNC(=O)c2cc3c(=O)[nH]c4ccccc4c3s2)CC1 here?
The Potency was inconclusive: 29.1 µM [activator, single point].

Which Potency does the source give for CC(Oc1ccc(Br)cc1)C(=O)Nc1ccc(N2CCOCC2)cc1N1CCOCC1 (configuration not stated) here?
Its Potency is inconclusive: 5.8 µM [inhibitor, partial curve, poor fit].

Which Potency does the source give for Cc1ccc2nc(Cl)c(C3CC(c4cccs4)=NN3C(=O)CCC(=O)O)cc2c1 (configuration not stated) here?
The Potency was inconclusive: 29.1 µM [activator, partial curve, poor fit].

For CCc1ccc(Nc2nnc(SCC(=O)Nc3cccnc3Cl)s2)cc1, which Potency is on record?
The Potency was “inactive”.

With N#CC(C#N)=C1C=CC=CN1/C(=C\c1ccco1)C(=O)c1ccc(Cl)cc1 as the compound, how does the Potency read?
Its Potency is inconclusive: 29.1 µM [inhibitor, single point].

Which Potency does the source give for CC1CN(C(=O)c2ccc(CNS(=O)(=O)c3cccc(C(F)(F)F)c3)cc2)CC(C)O1 (configuration not stated) here?
Its Potency is inconclusive: 20.6 µM [inhibitor, partial curve].

Which Potency does the source give for COc1ccc([N+](=O)[O-])cc1-n1cnnn1 here?
The Potency was “inactive”.

With O=C(COc1ccccc1)NC1CCCCCCC1 as the compound, how does the Potency read?
Its Potency is inconclusive: 11.6 µM [activator, partial curve].
